Data as given in PubChem BioAssay AID1224828 (NIAID, 2016).

Purpose: 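Find genes required for NF-kappaB p65 moving into the nucleus after LPS in mouse macrophages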 (primary screen)
Cell system: mouse RAW264.7 G9 macrophage reporter cells (GFP-p65, Tnf promoter-mCherry)
Reagent: siRNA pool against mouse genes, 100 nM
Timing: 2 days siRNA transfection, then 40 min LPS before fixation
Treatment: LPS (Salmonella minnesota R595) at 10 ng/ml
Read-out: 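Microscopy ratio of nuclear to perinuclear-ring GFP-p65 signal, scaled to the plate median; gene score is the average of two replicate robust z-scores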
Direction: p65 translocation robust z-score: higher = more nuclear NF-kappaB p65 after LPS than the plate median; nuclear/cytoplasmic p65 ratio: higher = more nuclear NF-kappaB p65
Call rule: 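Called active when z exceeds 3.3 or falls under -1.56 (median of Tlr4 controls), giving activity score of at least 50; no calls for control wells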
Meaning of the calls: active = hit (p65 shift raised or lowered); inactive = no clear change
Here is a random part of about 17,000 deposited reagents. 762 of them (4.5%) were called active. 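Active calls include both raised and lowered p65 entry, mostly lowered; wells with fewer than 50 cells lack a z-score.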 Raw values are not corrected between plates. Entries without a mark were called inactive. The numbers tell different reagents against one gene apart. No sequences are given here.

Target gene	reagent no.	p65 translocation robust z-score	nuclear/cytoplasmic p65 ratio, rep 1	nuclear/cytoplasmic p65 ratio, rep 2	low cell count flag
Hspa9 (heat shock protein family A (Hsp70) member 9)	1	-0.06	1.47	1.33	enough cells to score
Gp1bb (glycoprotein Ib, beta polypeptide)	1	0.59	1.52	1.45	enough cells to score
Grm7 (glutamate receptor, metabotropic 7)	1	-1.48	1.26	1.41	enough cells to score
Fstl1 (follistatin-like 1)	1	-1.28	1.29	1.18	enough cells to score
Krtap3-2 (keratin associated protein 3-2)	1	0.06	1.47	1.52	enough cells to score
Hck (Hck proto-oncogene, Src family tyrosine kinase)	1	0.79	1.85	1.46	enough cells to score
BC002118 (retired record)	1	0.29	1.51	2.02	enough cells to score
Klrg1 (killer cell lectin-like receptor subfamily G, member 1)	1	0.17	1.52	1.39	enough cells to score
B530045E10Rik (RIKEN cDNA B530045E10 gene)	1	0.81	1.76	1.91	enough cells to score
Sel1l3 (sel-1 suppressor of lin-12-like 3 (C. elegans))	1		1.31	1.3	fewer than 50 cells per well; well left out of scoring
Mdp1 (magnesium-dependent phosphatase 1)	1	0.68	1.5	1.34	enough cells to score
Mybph (myosin binding protein H)	1	-0.18	1.75	1.57	enough cells to score
Map10 (microtubule-associated protein 10)	1	-0.22	1.22	1.3	enough cells to score
Foxg1 (forkhead box G1)	1	0.66	1.5	1.47	enough cells to score
Or2bd2 (olfactory receptor family 2 subfamily BD member 2)	1	1.63	1.4	1.56	enough cells to score
Sec23a (SEC23 homolog A, COPII coat complex component)	1	0.28	1.48	1.26	enough cells to score
Acp3 (acid phosphatase 3)	1	-0.29	1.59	1.56	enough cells to score
Spata6l (spermatogenesis associated 6 like)	1		1.21	1.16	fewer than 50 cells per well; well left out of scoring
Pgam1 (phosphoglycerate mutase 1)	1	-0.09	1.5	1.34	enough cells to score

In a second layout: 3 of the entries above
{"Target gene":"Gp1bb (glycoprotein Ib, beta polypeptide)","reagent no.":1,"p65 translocation robust z-score":0.59,"nuclear/cytoplasmic p65 ratio, rep 1":1.52,"nuclear/cytoplasmic p65 ratio, rep 2":1.45,"low cell count flag":"enough cells to score"}
{"Target gene":"Grm7 (glutamate receptor, metabotropic 7)","reagent no.":1,"p65 translocation robust z-score":-1.48,"nuclear/cytoplasmic p65 ratio, rep 1":1.26,"nuclear/cytoplasmic p65 ratio, rep 2":1.41,"low cell count flag":"enough cells to score"}
{"Target gene":"Fstl1 (follistatin-like 1)","reagent no.":1,"p65 translocation robust z-score":-1.28,"nuclear/cytoplasmic p65 ratio, rep 1":1.29,"nuclear/cytoplasmic p65 ratio, rep 2":1.18,"low cell count flag":"enough cells to score"}

Additional entries:
Target gene	reagent no.	p65 translocation robust z-score	nuclear/cytoplasmic p65 ratio, rep 1	nuclear/cytoplasmic p65 ratio, rep 2	low cell count flag
Pip4k2a (phosphatidylinositol-5-phosphate 4-kinase, type II, alpha)	1	-0.24	1.66	1.34	enough cells to score
Slc4a8	1		1.3	1.29	fewer than 50 cells per well; well left out of scoring
Or5m5 (olfactory receptor family 5 subfamily M member 5)	1	-0.23	1.68	1.49	enough cells to score
Pde3b (phosphodiesterase 3B, cGMP-inhibited)	1	-0.75	1.36	1.26	enough cells to score
Borcs7 (BLOC-1 related complex subunit 7)	1	-0.92	1.18	1.26	enough cells to score
Bbc3 (BCL2 binding component 3)	1	-1.07	1.41	1.49	enough cells to score
Vmn1r19 (vomeronasal 1 receptor 19)	1	1.67	1.61	1.41	enough cells to score
Prrx1 (paired related homeobox 1)	1	1.02	1.66	1.52	enough cells to score
Zdhhc7 (zinc finger, DHHC domain containing 7)	1		1.42	1.08	fewer than 50 cells per well; well left out of scoring
Rps29 (ribosomal protein S29)	1	-0.69	1.39	1.52	enough cells to score
Or2a7 (olfactory receptor family 2 subfamily A member 7)	1	-0.85	1.45	1.4	enough cells to score
Rap1gds1 (RAP1, GTP-GDP dissociation stimulator 1)	1	-0.97	1.39	1.37	enough cells to score
Cabp2 (calcium binding protein 2)	1		1.28	1.29	fewer than 50 cells per well; well left out of scoring
Or8k35 (olfactory receptor family 8 subfamily K member 35)	1	1.13	1.83	1.75	enough cells to score
Degs1 (delta 4-desaturase, sphingolipid 1)	1	0.5	1.52	1.46	enough cells to score
Lrrc42 (leucine rich repeat containing 42)	1	0	1.46	1.44	enough cells to score
Klhl7 (kelch-like 7)	1	1.73	1.84	1.62	enough cells to score
4833432P19Rik (retired record)	1	-0.15	1.27	1.24	enough cells to score
Acer2 (alkaline ceramidase 2)	1	0.23	1.56	1.88	enough cells to score
Acer2 (alkaline ceramidase 2)	2	0.41	1.45	1.47	enough cells to score
Bmpr1a (bone morphogenetic protein receptor, type 1A)	1	-0.21	1.5	1.48	enough cells to score
